Laboratory results taken from patent US11680085B2 (VIROMETIX AG, priority 2017, dated 2023).

Assay: general procedure: Fmoc solid-phase peptide synthesis; Tentagel R Ram resin; PyBOP (for 3-maleimido-propionic acid)
Conditions: whole synthesis, analytical RP-HPLC; analytical UPLC for conjugates, scale 0.5 mmol

## NSELLSLIND-Nle-PITNDQKKL-Nle-SNNVQSVRa
  final HPLC purity: 80.9%
